Results: PMC8528870
These are yes or no findings as the source states them, for the method shown. Binding seen in cells or lysates may run through a third protein. A yes stands for co-enrichment or nearness to the bait. Other partners may have been found.

The chains behind the UniProt entries cited, without tags or fusion partners.
UniProt Q9H4A6: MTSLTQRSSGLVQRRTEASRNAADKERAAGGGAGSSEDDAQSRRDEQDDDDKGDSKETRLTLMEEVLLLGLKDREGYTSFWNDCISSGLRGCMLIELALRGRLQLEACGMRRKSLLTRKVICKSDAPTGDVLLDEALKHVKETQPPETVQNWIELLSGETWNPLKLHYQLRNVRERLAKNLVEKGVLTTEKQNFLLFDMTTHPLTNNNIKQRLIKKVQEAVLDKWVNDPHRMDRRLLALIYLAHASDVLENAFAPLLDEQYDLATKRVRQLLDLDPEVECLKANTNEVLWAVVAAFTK
UniProt Q07065: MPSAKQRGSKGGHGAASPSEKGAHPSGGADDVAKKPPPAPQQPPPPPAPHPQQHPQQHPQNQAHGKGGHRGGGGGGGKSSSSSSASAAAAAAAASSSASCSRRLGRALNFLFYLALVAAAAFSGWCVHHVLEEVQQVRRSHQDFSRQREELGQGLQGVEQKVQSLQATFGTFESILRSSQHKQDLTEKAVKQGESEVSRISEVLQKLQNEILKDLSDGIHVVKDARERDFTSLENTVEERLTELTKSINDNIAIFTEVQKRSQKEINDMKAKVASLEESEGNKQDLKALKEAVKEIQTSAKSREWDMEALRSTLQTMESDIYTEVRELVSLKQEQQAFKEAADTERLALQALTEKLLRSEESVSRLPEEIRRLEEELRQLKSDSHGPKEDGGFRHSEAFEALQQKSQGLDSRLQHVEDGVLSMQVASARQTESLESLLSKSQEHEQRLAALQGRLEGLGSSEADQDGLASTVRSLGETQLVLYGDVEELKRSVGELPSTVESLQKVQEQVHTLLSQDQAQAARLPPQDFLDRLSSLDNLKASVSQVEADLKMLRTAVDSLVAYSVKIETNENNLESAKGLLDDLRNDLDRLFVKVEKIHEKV

Target: SFB-GOLPH3 (Golgi phosphoprotein 3) (human) (UniProt Q9H4A6)
Test: affinity purification with mass spectrometry; IP-MASS in 293T cells transfected with SFB-vector or SFB-GOLPH3; SFB-GOLPH3 as bait

cytoskeleton-associated protein 4 (CKAP4), endogenous (from UniProt Q07065 1-602)
binding: binds
